# In paper PMC13034042:
# Chains of the proteins cited; added tags and fusions are not shown.
# UniProt P14120: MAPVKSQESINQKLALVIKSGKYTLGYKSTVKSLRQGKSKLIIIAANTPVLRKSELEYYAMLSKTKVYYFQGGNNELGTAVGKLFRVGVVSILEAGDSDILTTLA
# Results are given in words; binding and its absence hold for the method and conditions named. In cells and extracts the contact can be indirect. Here binding means that the protein was enriched with, or labelled near, the bait; the list need not be complete. For part of these data: Sequences can lack the tags named with a protein.
# T1: TurboID-tagged Tsr4 (both baits) (S. cerevisiae) (UniProt P25040)
# T1 sequence: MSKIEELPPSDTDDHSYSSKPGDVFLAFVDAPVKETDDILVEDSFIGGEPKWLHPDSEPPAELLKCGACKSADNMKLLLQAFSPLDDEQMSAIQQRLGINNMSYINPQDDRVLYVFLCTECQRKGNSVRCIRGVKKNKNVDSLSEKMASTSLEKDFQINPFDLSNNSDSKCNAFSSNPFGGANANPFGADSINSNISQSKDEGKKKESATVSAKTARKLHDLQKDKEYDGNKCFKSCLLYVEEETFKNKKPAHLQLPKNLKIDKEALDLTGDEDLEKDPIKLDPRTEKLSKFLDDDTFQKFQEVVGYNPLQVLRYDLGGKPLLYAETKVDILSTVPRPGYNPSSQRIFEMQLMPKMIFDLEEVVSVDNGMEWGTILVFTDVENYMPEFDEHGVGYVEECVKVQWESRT
# T2: TurboID-tagged Yar1 (both baits) (S. cerevisiae) (UniProt P46683)
# T2 sequence: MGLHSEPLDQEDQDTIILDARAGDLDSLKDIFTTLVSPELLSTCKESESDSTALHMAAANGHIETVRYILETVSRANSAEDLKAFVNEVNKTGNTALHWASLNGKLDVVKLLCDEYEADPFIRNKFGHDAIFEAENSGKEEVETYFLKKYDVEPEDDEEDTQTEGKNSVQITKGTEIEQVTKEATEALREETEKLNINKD
# T3: TurboID-tagged Acl4 (both baits) (S. cerevisiae) (UniProt Q03771)
# T3 sequence: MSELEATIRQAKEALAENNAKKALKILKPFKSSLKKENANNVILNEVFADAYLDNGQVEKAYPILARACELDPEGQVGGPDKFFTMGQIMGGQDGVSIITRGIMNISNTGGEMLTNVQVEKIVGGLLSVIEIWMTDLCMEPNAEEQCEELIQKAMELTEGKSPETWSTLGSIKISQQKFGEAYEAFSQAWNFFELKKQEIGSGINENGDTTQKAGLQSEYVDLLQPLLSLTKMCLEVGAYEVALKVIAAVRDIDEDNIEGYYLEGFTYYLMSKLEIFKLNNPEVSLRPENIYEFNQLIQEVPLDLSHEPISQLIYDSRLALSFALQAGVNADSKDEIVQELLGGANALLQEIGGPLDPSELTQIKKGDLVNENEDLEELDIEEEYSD
# T4: Bcl1-TurboID (S. cerevisiae) (UniProt P53962)
# T4 sequence: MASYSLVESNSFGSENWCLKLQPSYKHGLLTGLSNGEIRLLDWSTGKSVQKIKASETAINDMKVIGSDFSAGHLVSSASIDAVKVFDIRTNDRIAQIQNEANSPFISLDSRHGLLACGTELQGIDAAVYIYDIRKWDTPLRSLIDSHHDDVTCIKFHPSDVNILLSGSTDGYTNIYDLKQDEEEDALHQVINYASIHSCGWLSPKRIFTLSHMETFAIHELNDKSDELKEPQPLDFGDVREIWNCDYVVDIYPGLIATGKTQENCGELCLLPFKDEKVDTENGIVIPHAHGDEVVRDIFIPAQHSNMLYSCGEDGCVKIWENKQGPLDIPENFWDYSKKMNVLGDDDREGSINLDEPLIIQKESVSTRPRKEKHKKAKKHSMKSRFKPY
# T5: Rpl38-TurboID (S. cerevisiae) (UniProt P49167)
# T5 sequence: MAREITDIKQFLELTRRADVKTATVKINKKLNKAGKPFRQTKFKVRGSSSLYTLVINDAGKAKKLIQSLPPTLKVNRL
# Tests used:
# Assay in all cases: proximity labelling; TurboID-fused bait expressed from a centromeric CUP1-promoter plasmid in S. cerevisiae YDK11-5A; 500 μM copper sulphate and 500 μM biotin for 1 h at 30°C; biotinylated proteins purified on streptavidin agarose and identified by LC-MS/MS; enrichment against the GFP-TurboID and NLS-GFP-TurboID type controls
# [1] = target: T1, TurboID-tagged Tsr4 (both baits) (S. cerevisiae)
# [2] = target: T2, TurboID-tagged Yar1 (both baits) (S. cerevisiae)
# [3] = target: T3, TurboID-tagged Acl4 (both baits) (S. cerevisiae)
# [4] = target: T4, Bcl1-TurboID (S. cerevisiae)
# [5] = target: T5, Rpl38-TurboID (S. cerevisiae)
# [6] = target: Rpl30-TurboID (S. cerevisiae) (UniProt P14120)
binder,measurement,setting,value
"Rps2 (endogenous) (protein, UniProt P25443 1-254) MSAPEAQQQKRGGFGGRNRGRPNRRGPRNTEEKGWVPVTKLGRLVKAGKITTIEEIFLHSLPVKEFQIIDTLLPGLQDEVMNIKPVQKQTRAGQRTRFKAVVVVGDSNGHVGLGIKTAKEVAGAIRAGIIIAKLSVIPIRRGYWGTNLGQPHSLATKTTGKCGSVTVRLIPAPRGSGIVASPAVKKLLQLAGVEDVYTQSNGKTRTLENTLKAAFVAIGNTYGFLTPNLWAEQPLPVSPLDIYSDEASAQKKRF",binding,[1],binds
"Rps3 (endogenous) (protein, UniProt P05750 1-240) MVALISKKRKLVADGVFYAELNEFFTRELAEEGYSGVEVRVTPTKTEVIIRATRTQDVLGENGRRINELTLLVQKRFKYAPGTIVLYAERVQDRGLSAVAQAESMKFKLLNGLAIRRAAYGVVRYVMESGAKGCEVVVSGKLRAARAKAMKFADGFLIHSGQPVNDFIDTATRHVLMRQGVLGIKVKIMRDPAKSRTGPKALPDAVTIIEPKEEEPILAPSVKDYRPAEETEAQAEPVEA",binding,[2],binds
"Mak16 (endogenous) (protein, UniProt P10962 1-306) MSDEIVWQVINQSFCSHRIKAPNGQNFCRNEYNVTGLCTRQSCPLANSKYATVKCDNGKLYLYMKTPERAHTPAKLWERIKLSKNYTKALQQIDEHLLHWSKFFRHKCKQRFTKLTQVMITERRLALREEERHYVGVAPKVKRREQNRERKALVAAKIEKAIEKELMDRLKSGAYGDKPLNVDEKVWKKIMGQMEEENSQDEEEDWDEEEESDDGEVEYVADDGEGEYVDVDDLEKWLADSDREASSASESESDSESESDSDSDEENKNSAKRRKKGTSAKTKRPKVEIEYEEEHEVQNAEQEVAQ",binding,[3],binds
"Kap121 (endogenous) (protein, UniProt P32337 1-1089) MSALPEEVNRTLLQIVQAFASPDNQIRSVAEKALSEEWITENNIEYLLTFLAEQAAFSQDTTVAALSAVLFRKLALKAPPSSKLMIMSKNITHIRKEVLAQIRSSLLKGFLSERADSIRHKLSDAIAECVQDDLPAWPELLQALIESLKSGNPNFRESSFRILTTVPYLITAVDINSILPIFQSGFTDASDNVKIAAVTAFVGYFKQLPKSEWSKLGILLPSLLNSLPRFLDDGKDDALASVFESLIELVELAPKLFKDMFDQIIQFTDMVIKNKDLEPPARTTALELLTVFSENAPQMCKSNQNYGQTLVMVTLIMMTEVSIDDDDAAEWIESDDTDDEEEVTYDHARQALDRVALKLGGEYLAAPLFQYLQQMITSTEWRERFAAMMALSSAAEGCADVLIGEIPKILDMVIPLINDPHPRVQYGCCNVLGQISTDFSPFIQRTAHDRILPALISKLTSECTSRVQTHAAAALVNFSEFASKDILEPYLDSLLTNLLVLLQSNKLYVQEQALTTIAFIAEAAKNKFIKYYDTLMPLLLNVLKVNNKDNSVLKGKCMECATLIGFAVGKEKFHEHSQELISILVALQNSDIDEDDALRSYLEQSWSRICRILGDDFVPLLPIVIPPLLITAKATQDVGLIEEEEAANFQQYPDWDVVQVQGKHIAIHTSVLDDKVSAMELLQSYATLLRGQFAVYVKEVMEEIALPSLDFYLHDGVRAAGATLIPILLSCLLAATGTQNEELVLLWHKASSKLIGGLMSEPMPEITQVYHNSLVNGIKVMGDNCLSEDQLAAFTKGVSANLTDTYERMQDRHGDGDEYNENIDEEEDFTDEDLLDEINKSIAAVLKTTNGHYLKNLENIWPMINTFLLDNEPILVIFALVVIGDLIQYGGEQTASMKNAFIPKVTECLISPDARIRQAASYIIGVCAQYAPSTYADVCIPTLDTLVQIVDFPGSKLEENRSSTENASAAIAKILYAYNSNIPNVDTYTANWFKTLPTITDKEAASFNYQFLSQLIENNSPIVCAQSNISAVVDSVIQALNERSLTEREGQTVISSVKKLLGFLPSSDAMAIFNRYPADIMEKVHKWFA",binding,[4],binds
same,binding,[5],binds
"Kap119 (endogenous) (protein, UniProt P46970 1-1048) MDITELLQCFACTLDHNAAVRTNAETHLKNASKVPGFLGACLDIIAADEVPENIKLSASLYFKNKITYGWSAGARQGSNELLDSHVDPDEKPVVKDMLIKTMVSVSKTSPRCIRVLKSALTVIISEDYPSKKWGNLLPNSLELLANEDITVTYVGLLCLAEIFRTYRWKNNDERQDLEELILNYFPALLNYGANVLFQDGKYMNNEQIGELVKLIIKIYKFVSYHDLPFTLQRSESFTPWACFFVSIIQQPLPQEVLAISDIEVRSKNPWVKCKKWALANLYRLFQRYASTSLTRKFQYDEFKQMYCEEFLTQFLQVVFDQIEKWGTGQLWLSDECLYYILNFVEQCVVQKTTWKLVGPHYNVILQHVIFPLLKPTAETLEAFDNDPQEYINRNMDFWDVGYSPDLAALALLTTCVTKRGKTTLQPTLEFMVSTLQSAVGDYNNIMLDNALQIESCLRIFSSIIDRLITKDSPFASEMEKFILTYVLPFFKSQYGFLQSRVCDICSKLGSMDFKDPVITSTIYEGVMNCLNNSSNSLPVELTAALALQTFISDDQFNMKLSEHVVPTMQKLLSLSNDFESDVISGVMQDFVEQFAEQLQPFGVELMNTLVQQFLKLAIDLHETSNLDPDSFTNVDSIPDESDKQMAALGILSTTISILLSFENSPEILKNLEQSFYPAAEFILKNDIEDFYRECCEFVENSTFLLRDITPISWKILELIGECNRKPDSMVSYYLSDFMLALNNILIYGRNELKKNEFYTKIIFEIYQKAVTAEDNSLDDLRVVFDLSQELVLALDDSLPQQYRERLLADVVGSILTQKNELKTNVVFSVTAFNVVISNMITEPLITLQYLKQQGCLEIFFQTWITDYIPNYKRCYDIKLSVLALLKIILKLESNDYSVLNLENLVPQLGSIVTQLASRLPTALRQLANQRKEFSSSGFEEDTKWDENFLDVGDDDENDDEGDLTEKYLELIKNRADSLDFVDGYDAKETFDDLEEDPLTGSILDTVDVYKVFKESIANLQHVDSNRYQGILRHLTPADQELFMGIMNA",binding,[6],binds
